# Data taken from patent US10308631B2, “Selective anti-cancer compounds” (NATIONAL UNIVERSITY OF SINGAPORE, priority 2015, dated 2019).
# For at least one compound, name, drawing or mass did not settle the structure.
# Assays:
# [1] = test system: pH3 (Ser10) and LC3 in BJ transformed cells; experiment: Immunoblot classification of compounds by pH3 and LC3 (FIG. 4); assay type: cell-based, human; details: 5 μM, 24 h
# Method: FIG. 4 compares the ability of Compound 1 (a131), and various derivatives thereof (referred to using their code numbers for brevity; the designated chemical compound for each code number is provided in the chemical examples section below), to inhibit autophagy and/or mitosis. BJ transformed cells were treated with 5 μM of various Compounds as shown, for 24 h. Cells were harvested and total lysates were analysed by detecting the mitotic marker phospho-histone H3 at serine 10 (pH3 (Ser10)) and the autophagosome marker LC3. Antibodies raised against β-actin were used as an internal loading control.
# Derivatives of Compound 1 were tested to see if they had similar dual activity, or presented only one of the activities of Compound 1. The protocol for immunoblot analysis described in Biology Example 1 was applied to the additional indicated compounds.
# [2] = test system: oncogene-transformed BJ cells; experiment: PI staining and FACS analysis, sub-G1 cell death; assay type: cell-based, human; details: 48 h
# Method: (§1) FIG. 5A is a histogram showing the ability of Compound 1 (a131) and its derivatives Compound 2 (a156), Compound 16 (b5), Compound 17 (b9), all in Group 1; Compound 29 (a219), Compound 13 (b12), Compound 11 (b15), Compound 12 (b16), Compound 25 (a166), all in Group 2; and Compound 3 (a159) from Group 3, to induce cancer selective cell death. Isogenic non-transformed (normal) and oncogene-transformed BJ cells were treated with each compound for 48 h and cells were stained with propidium iodide (PI) and subjected to FACS analysis. The percentage of cells in sub-G1 phase is indicative of the extent of cell death. […] In contrast, the ability of the compounds in Groups 2 and 3 to induce cancer selective cell death was markedly compromised (or reduced).
# (§2) The Compounds 25 (a166) and 3 (a159) were selected from Group 2 and Group 3, respectively. Isogenic non-transformed normal and oncogene-transformed BJ cells were treated with or without 0.3 μM or 0.6 μM Compound 3 (a159) alone or together with 1.25 μM Compound 25 (a166) for 48 h. Cells were stained with propidium iodide (PI) and subjected to FACS analysis.
# (§3) Isogenic non-transformed and oncogene-transformed human fibroblast BJ cell lines were cultured in DMEM supplemented with 10% FBS. The cells were treated with Compound 1 (2.5 μM, DMSO). 48 h after treatment, the cells were fixed with ethanol at −30° C. overnight and stained with 20 μg/mL propidium iodide (PI) and 10 μg/mL RNase A for 30 min. These cells were then subjected to flow cytometry (FACS) analysis using MACSQuant (Miltenyi Biotec) to count the percentage of apoptotic cells in sub-G1 peak.
# (§4) The above procedure was repeated for Group 1 Compounds 2, 16 and 17, Group 2 Compounds 29, 13, 11, 12 and 25 at a concentration of 10 μM, and Group 3 Compound 3 at a concentration of 5 μM.
# (§5) Isogenic non-transformed normal and oncogene-transformed BJ cells were cultured as in Biology Example 3. The cells were treated with a combination of Compound 3 (Group 3, at a concentration of 0.3 μM or 0.6 μM), and Compound 25 (Group 2, at a concentration of 1.25 μM) for 48 hours. […]
# [3] = test system: isogenic non-transformed (normal) BJ cells; experiment: PI staining and FACS analysis, sub-G1 cell death; assay type: cell-based, human; details: Compound 3 0.3 or 0.6 μM, Compound 25 1.25 μM, alone or in combination, 48 h
# Method: as §1, §2, §3, §4, §5
# [4] = test system: non-transformed normal BJ cells; experiment: BrdU incorporation and FACS analysis (cell cycle arrest); assay type: cell-based, human; details: 24 h; 2.5 and 5 μM (FIG. 9A, 9C)
# Method: A: is output from a FACS analysis of isogenic-non-transformed, without (panels a-c) (WT) or with (panels d-f) shRNA-mediated knockdown of p53 (p53KD), and oncogene-transformed BJ cells (panels g-i), each treated with 0, 5 or 2.5 μM Compound 1 (a131) for 24 h. Cells were doubly stained with PI (horizontal axis) and BrdU (vertical axis). The BrdU-positive population in panels a-c are indicated as arrows. B: is a diagrammatic representation of an immunoblot analysis showing isogenic non-transformed (normal) and oncogene-transformed BJ cells (transformed) treated with Compound 1 (a131) at 0, 2.5 or 5 μM for 24 h or 48 h. Cells were harvested and total lysates were analysed by detecting p53 and p21. Antibodies raised against β-actin were used as an internal loading control. C and D are histograms showing the percentage of bromodeoxyuracil (BrdU)-positive non-transformed (normal) BJ cells. […]
# Furthermore, the abilities of additional five (5) Compounds to arrest cells at the stage of G1/S phase of the cell cycle were evaluated. […] The abilities of these Compounds to arrest cells at the stage of G1/S phase of the cell cycle were then measured by using BrdU incorporation assay and FACS analysis. The percentage of cells with BrdU positive population in comparison with DMSO control vehicle was determined and plotted with mean values±S.D. (n=3).
# [5] = test system: non-transformed normal and oncogene-transformed human fibroblast BJ cell lines; experiment: Chemoprotection from paclitaxel, Annexin V/PI FACS; assay type: cell-based; details: pre-treatment 5 μM 48 h, then 50 nM paclitaxel
# Method: Normal and transformed BJ cells were treated with Compound 25 at 5 μM. 48 h after treatment, cells were further treated with (A) 50 nM paclitaxel (PTX) or (B) etoposide, at the concentrations shown, for additional 48 or 72 h, respectively. A: cells were collected, stained with Annexin V together with propidium iodide (PI) and subjected to FACS analysis. […] Student's t-test was performed to determine the statistical significance (***=P<0.0001, **=P<0.001, *=P<0.05, n.s.=no significance).
# The chemoprotective efficacies of the Compounds in Group 2 were further evaluated by measuring their ability to protect non-transformed normal cells, but not cancer and oncogene-transformed counterparts, from the most well-known as well as clinically-relevant chemotherapeutic agents, paclitaxel and etoposide. To determine this, isogenic non-transformed normal and oncogene-transformed human fibroblast BJ cell lines, cultured in DMEM supplemented with 10% FBS, were pre-treated with Compound 25 (a166—Group 2) at 5 μM. 48 h after treatment, cells were further treated with paclitaxel (PTX; FIG. 13A) or etoposide (FIG. 13B) for an additional 72 h. […] For etoposide, cell viability was determined using MTT assay and plotted in comparison with DMSO control vehicle with mean values±S.D. (n=4).
Structure (SMILES),Inhibition of lysosome function and/or mitosis (FIG. 4) [1],"cell death (population of cells in sub-G1) ([2]; Compound 1 2.5 μM, other Group 1 and Group 2 compounds 10 μM, Compound 3 5 μM (FIG. 5A))",cell death [3],cell death ([2]; Compound 25 alone at 1.25 μM),BrdU-positive cell population [4],chemoprotection from paclitaxel (cells doubly positive for Annexin V and PI) [5]
"CC(=O)NCCC(=O)n1cc(/C(C#N)=C/c2cccc3cnccc23)c2ccccc21 [Compound 17, (Z)—N-(3-(3-(1-cyano-2-(isoquinolin-5-yl)vinyl)-1H-indol-1-yl)-3-oxopropyl)acetamide]",exhibit the dual properties of inhibiting both lysosome function and mitosis,selectively induced cell death in oncogene-transformed BJ cells while sparing normal counterparts,–,–,–,–
"C(=C\c1c[nH]c2ccccc12)/c1cccc2cnccc12 [Compound 25, 5-((E)-2-(1H-indol-3-yl)vinyl)isoquinoline]",inhibit lysosome function only,–,did not lead to a significant increase in cell death,did not lead to a significant increase in cell death,substantially decreased the population of BrdU-positive cells,"markedly enhanced cancer-selective lethality, while largely protecting non-transformed normal counterparts"
